Reference: publication PMC7613278
These are yes or no findings as the source states them, for the method shown. Binding seen in cells or lysates may run through a third protein. Some results given as binding are weak or reduced against the parent protein; the word gives no strength. Blank lines part the entries; values can stand above or below the substance they belong to.

Chains of the proteins cited; added tags and fusions are not shown. Lines headed by an entry give the natural chain unless they say otherwise; changes in a name come on top.
UniProt E9QAN8: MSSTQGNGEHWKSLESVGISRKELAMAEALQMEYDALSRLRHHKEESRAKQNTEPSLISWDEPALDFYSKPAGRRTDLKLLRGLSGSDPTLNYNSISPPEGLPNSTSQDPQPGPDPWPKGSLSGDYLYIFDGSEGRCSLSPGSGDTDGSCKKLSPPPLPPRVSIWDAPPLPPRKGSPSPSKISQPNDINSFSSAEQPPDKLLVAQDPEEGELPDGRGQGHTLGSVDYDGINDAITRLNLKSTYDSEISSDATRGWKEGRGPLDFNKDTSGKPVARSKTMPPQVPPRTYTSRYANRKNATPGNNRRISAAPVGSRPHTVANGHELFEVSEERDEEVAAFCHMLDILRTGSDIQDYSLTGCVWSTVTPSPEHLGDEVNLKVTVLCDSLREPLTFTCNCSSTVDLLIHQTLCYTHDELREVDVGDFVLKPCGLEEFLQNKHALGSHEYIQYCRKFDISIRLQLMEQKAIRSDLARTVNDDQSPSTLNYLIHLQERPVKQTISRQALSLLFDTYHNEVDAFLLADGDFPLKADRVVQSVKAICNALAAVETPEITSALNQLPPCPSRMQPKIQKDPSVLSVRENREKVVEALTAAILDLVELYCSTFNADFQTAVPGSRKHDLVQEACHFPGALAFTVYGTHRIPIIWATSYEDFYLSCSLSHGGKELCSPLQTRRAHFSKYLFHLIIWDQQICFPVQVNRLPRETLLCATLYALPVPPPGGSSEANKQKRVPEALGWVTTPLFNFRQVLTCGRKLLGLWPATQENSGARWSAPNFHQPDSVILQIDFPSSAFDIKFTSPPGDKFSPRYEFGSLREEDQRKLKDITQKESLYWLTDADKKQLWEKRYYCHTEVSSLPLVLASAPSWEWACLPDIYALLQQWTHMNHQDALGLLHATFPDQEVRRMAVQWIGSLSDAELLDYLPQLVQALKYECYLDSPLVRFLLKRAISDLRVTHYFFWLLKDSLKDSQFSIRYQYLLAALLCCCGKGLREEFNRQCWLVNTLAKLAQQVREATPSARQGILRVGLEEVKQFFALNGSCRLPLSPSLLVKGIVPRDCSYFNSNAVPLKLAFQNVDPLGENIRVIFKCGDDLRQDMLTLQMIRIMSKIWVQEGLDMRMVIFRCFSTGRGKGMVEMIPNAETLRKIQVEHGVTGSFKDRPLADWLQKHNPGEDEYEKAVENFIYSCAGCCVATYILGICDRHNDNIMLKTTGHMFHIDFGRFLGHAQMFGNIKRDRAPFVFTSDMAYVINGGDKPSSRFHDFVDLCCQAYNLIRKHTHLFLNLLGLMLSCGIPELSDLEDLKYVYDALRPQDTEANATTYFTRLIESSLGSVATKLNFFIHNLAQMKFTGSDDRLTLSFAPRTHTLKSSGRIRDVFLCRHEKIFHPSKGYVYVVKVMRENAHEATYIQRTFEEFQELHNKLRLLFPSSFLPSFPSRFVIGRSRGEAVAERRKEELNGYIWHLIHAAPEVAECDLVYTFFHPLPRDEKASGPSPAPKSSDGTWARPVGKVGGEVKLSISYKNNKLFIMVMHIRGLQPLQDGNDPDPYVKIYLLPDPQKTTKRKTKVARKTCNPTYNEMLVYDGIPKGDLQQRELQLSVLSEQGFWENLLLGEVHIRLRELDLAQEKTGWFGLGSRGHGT
UniProt O00750: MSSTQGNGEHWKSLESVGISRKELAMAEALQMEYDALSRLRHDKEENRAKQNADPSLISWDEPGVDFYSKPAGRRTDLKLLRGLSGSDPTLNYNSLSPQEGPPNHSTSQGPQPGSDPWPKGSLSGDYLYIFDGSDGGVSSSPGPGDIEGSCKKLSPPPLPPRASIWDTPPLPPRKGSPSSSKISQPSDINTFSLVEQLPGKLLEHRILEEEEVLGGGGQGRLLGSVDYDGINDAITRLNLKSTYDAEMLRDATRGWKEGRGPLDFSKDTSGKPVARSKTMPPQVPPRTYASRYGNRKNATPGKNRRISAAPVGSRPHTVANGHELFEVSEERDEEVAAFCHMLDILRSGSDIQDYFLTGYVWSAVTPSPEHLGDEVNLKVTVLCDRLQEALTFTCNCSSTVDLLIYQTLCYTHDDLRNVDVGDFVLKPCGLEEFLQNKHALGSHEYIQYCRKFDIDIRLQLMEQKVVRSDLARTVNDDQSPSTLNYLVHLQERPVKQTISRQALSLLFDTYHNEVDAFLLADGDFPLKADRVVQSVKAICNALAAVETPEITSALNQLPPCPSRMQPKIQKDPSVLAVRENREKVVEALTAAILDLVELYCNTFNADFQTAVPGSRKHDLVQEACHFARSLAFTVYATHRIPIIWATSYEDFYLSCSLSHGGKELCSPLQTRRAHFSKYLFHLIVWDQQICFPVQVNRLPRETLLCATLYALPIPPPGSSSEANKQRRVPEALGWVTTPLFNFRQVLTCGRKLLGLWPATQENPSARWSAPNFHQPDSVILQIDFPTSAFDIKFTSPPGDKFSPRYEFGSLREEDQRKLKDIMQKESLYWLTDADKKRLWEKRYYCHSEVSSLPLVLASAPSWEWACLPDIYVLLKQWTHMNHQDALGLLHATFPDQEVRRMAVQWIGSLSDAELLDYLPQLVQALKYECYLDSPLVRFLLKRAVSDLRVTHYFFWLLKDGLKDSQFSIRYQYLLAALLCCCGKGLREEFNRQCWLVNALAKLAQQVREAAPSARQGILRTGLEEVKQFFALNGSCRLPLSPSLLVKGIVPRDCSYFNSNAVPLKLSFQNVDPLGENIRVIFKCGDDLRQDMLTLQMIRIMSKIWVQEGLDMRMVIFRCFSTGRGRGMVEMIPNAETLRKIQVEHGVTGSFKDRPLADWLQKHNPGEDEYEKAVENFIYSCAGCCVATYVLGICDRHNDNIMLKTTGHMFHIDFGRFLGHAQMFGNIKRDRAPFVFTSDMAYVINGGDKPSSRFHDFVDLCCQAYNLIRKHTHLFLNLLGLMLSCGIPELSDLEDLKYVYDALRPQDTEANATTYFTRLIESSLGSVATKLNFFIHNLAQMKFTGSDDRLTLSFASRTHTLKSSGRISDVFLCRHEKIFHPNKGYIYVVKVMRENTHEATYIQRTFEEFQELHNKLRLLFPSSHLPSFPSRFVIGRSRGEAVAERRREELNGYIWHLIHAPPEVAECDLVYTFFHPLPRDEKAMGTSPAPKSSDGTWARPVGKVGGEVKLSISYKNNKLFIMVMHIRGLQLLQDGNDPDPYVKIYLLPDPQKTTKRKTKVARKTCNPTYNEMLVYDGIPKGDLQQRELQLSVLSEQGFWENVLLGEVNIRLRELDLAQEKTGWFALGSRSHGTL
UniProt Q8WUY9: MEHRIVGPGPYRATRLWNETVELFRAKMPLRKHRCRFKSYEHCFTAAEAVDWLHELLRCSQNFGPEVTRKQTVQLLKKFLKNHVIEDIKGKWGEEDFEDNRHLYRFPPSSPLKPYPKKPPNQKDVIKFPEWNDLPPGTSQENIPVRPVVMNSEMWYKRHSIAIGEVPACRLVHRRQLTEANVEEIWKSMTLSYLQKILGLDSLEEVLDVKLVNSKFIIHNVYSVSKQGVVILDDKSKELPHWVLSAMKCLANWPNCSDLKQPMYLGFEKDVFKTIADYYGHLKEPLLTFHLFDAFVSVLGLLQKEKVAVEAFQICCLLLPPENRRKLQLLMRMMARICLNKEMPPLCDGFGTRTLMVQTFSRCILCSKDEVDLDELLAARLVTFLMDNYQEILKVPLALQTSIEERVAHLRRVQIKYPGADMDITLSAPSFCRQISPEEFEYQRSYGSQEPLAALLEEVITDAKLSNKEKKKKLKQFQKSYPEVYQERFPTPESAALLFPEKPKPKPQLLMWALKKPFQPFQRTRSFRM

Columns and labels:
[1] = target: 6×myc-mousePI3K-C2β (mouse) (UniProt E9QAN8); assay: co-IP; HEK293T cells co-expressing eGFP-DEPDC1B and 6×myc-PI3K-C2β, 48 h after transfection; lysis buffer 20 mM HEPES pH 7.4, 100 mM KCl, 2 mM MgCl2, 1% Triton X-100; anti-c-Myc (control anti-Flag) or anti-DEPDC1B (control anti-mouse IgG) on magnetic protein A or G beads, 4°C overnight
[2] = target: endogenous eGFP-PI3K-C2β (genome-engineered HEK293T cells) (human (endogenous in HEK293T)) (UniProt O00750); assay: co-IP; genome-engineered HEK293T cells with endogenous eGFP-PI3K-C2β; IP buffer 20 mM HEPES pH 7.4, 150 mM NaCl, 0.05% saponin; control or GFP-trap magnetic beads, 4 h at 4°C; cells untreated or treated for 2 h with vehicle or PKN inhibitors (1 μM PKC412 + 2 μM Cdk1/2 inhibitor III)
[3] = target: eGFP-DEPDC1B (human) (UniProt Q8WUY9); assay: co-IP; HEK293T cells co-expressing eGFP-DEPDC1B and 6×myc-PI3K-C2β, 48 h after transfection; lysis buffer 20 mM HEPES pH 7.4, 100 mM KCl, 2 mM MgCl2, 1% Triton X-100; anti-c-Myc (control anti-Flag) or anti-DEPDC1B (control anti-mouse IgG) on magnetic protein A or G beads, 4°C overnight

- binding [1]: binds
Substance: eGFP-DEPDC1B (from UniProt Q8WUY9 1-529)

- binding [2]: binds
Substance: endogenous DEPDC1B (from UniProt Q8WUY9 1-529)

- binding [3]: binds
Substance: 6×myc-mousePI3K-C2β (from UniProt E9QAN8 1-1632) (enzyme)
